Reference: patent US12215107B1, “Pyrazino[1′,2′:1,5]pyrazolo[4,3-c] [2,6] naphthyridine compounds as CK2 inhibitors” (KING FAISAL UNIVERSITY, priority 2024, dated 2025)

Assays:
Format in all cases: cell-based
MIAPaCa-2 (pancreas) = assay: MTT in vitro cytotoxic activity assay, MIAPaCa-2; settings: Homo sapiens, MIA PaCa-2, cells exposed for 96 hours, read-out: Cytotoxicity activity IC50 (50% inhibition of cell proliferation)
Protocol: (§1) Compounds 1-16 were screened for their in vitro cytotoxic activity utilizing a 3-(4,5-dimethyl-thiazol-2-yl)-2,5-diphenyltetrazolium bromide (MTT) assay against selected cancer human cell lines consisting of PC3 (prostate), HCT116 (colon), A375 (melanoma), H1299 (lung), MIAPaCa-2 (pancreas), HL60 (leukemia), MCF7 (breast), MDA-MB-231 (breast) (T. Mosmann, J. Immunol. Meth., 1983, 65, 55-63). The cells were cultured at 37° C. in RMPI1640 medium supplemented with 10% fetal bovine serum, 50 IU/mL penicillin, and 50 μg/mL streptomycin in a 5% CO2 incubator. All cells were sub-cultured 3 times/week by trypsinisation. Viable cells were seeded and allowed to adhere for 12 hours before a test drug was added in 96-well plates at an initial density of 1.0×10^5 cells/mL. Tumor cell lines were separately exposed to various concentrations of the tested compounds followed by incubation at a temperature of 37° C. during 96 hours inside a medium of fresh RMPI 1640. Cells were subsequently incubated at 37° C. using MTT at 0.5 mg/mL during 4 hours. After removal of supernatant, formazan crystals were dissolved in isopropanol and the optical density was measured at 570 nm. CX-4945 was used as a positive control.

MDA-MB-231 (breast) = assay: MTT in vitro cytotoxic activity assay, MDA-MB-231; settings: Homo sapiens, cells exposed for 96 hours, read-out: Cytotoxicity activity IC50 (50% inhibition of cell proliferation)
Protocol: as §1

HL60 (leukemia) = assay: MTT in vitro cytotoxic activity assay, HL60; settings: Homo sapiens, HL-60, cells exposed for 96 hours, read-out: Cytotoxicity activity IC50 (50% inhibition of cell proliferation)
Protocol: as §1

H1299 (lung) = assay: MTT in vitro cytotoxic activity assay, H1299; settings: Homo sapiens, NCI-H1299, cells exposed for 96 hours, read-out: Cytotoxicity activity IC50 (50% inhibition of cell proliferation)
Protocol: as §1

A375 (melanoma) = assay: MTT in vitro cytotoxic activity assay, A375; settings: Homo sapiens, A-375, cells exposed for 96 hours, read-out: Cytotoxicity activity IC50 (50% inhibition of cell proliferation)
Protocol: as §1

MCF7 (breast) = assay: MTT in vitro cytotoxic activity assay, MCF7; settings: Homo sapiens, cells exposed for 96 hours, read-out: Cytotoxicity activity IC50 (50% inhibition of cell proliferation)
Protocol: as §1

PC3 (prostate) = assay: MTT in vitro cytotoxic activity assay, PC3; settings: Homo sapiens, Prostate cell, cells exposed for 96 hours, read-out: Cytotoxicity activity IC50 (50% inhibition of cell proliferation)
Protocol: as §1

HCT116 (colon) = assay: MTT in vitro cytotoxic activity assay, HCT116; settings: Homo sapiens, HCT-116, cells exposed for 96 hours, read-out: Cytotoxicity activity IC50 (50% inhibition of cell proliferation)
Protocol: as §1

Question: What does the source list for `O=C(O)c1ccc2c(c1)nc(Nc1cccc(Cl)c1)c1ccncc12` [CX-4945, reference compound]?
Answer: IC50 (MIAPaCa-2 (pancreas)): 1000 nM; IC50 (MDA-MB-231 (breast)): 6.2 µM; IC50 (HL60 (leukemia)): 3.7 µM; IC50 (H1299 (lung)): 2300 nM; IC50 (A375 (melanoma)): 4.1 µM; IC50 (MCF7 (breast)): 9.1 µM; IC50 (PC3 (prostate)): 2000 nM; IC50 (HCT116 (colon)): 2300 nM
